Results published in article PMC8366450.
These are yes or no findings as the source states them, for the method shown. Some binding calls cover weakened binding; strength is not graded here.

Chains of the proteins cited; added tags and fusions are not shown.
UniProt P18206: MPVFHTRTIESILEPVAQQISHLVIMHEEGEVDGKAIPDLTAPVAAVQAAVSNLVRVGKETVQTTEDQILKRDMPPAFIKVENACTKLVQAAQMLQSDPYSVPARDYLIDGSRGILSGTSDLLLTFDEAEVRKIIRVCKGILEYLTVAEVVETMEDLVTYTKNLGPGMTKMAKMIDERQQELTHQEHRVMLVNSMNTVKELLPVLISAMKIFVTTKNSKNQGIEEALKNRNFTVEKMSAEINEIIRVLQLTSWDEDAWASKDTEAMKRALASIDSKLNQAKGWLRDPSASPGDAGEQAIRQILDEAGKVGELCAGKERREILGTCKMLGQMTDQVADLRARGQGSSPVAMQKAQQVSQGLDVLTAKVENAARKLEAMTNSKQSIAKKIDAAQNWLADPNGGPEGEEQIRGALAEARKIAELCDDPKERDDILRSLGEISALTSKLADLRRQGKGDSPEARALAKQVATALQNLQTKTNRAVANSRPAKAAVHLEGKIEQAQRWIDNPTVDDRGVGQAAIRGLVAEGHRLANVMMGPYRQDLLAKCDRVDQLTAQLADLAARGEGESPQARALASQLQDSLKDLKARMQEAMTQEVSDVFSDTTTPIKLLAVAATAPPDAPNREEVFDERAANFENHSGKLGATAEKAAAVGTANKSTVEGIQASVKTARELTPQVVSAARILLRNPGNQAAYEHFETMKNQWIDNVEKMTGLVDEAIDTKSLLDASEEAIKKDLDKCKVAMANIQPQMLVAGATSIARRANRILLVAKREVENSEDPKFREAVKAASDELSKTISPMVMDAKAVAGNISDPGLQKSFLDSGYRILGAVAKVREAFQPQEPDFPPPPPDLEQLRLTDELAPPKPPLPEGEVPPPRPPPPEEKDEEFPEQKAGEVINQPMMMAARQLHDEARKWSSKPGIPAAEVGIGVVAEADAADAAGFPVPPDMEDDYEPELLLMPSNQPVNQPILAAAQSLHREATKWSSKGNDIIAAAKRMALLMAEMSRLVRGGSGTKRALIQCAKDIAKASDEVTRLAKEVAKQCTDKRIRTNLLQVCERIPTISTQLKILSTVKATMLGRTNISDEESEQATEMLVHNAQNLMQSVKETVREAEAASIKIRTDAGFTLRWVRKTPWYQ

Columns and labels:
Assay in all cases: peptide or protein array; HuProt v3.1 human proteome microarray; >20 000 human recombinant proteins immobilised on the array; purified His-V5-CPPED1 applied; both purified
Vinculin (human) = Vinculin (human) (UniProt P18206)
[1] = target: T1, pogo transposable element derived with ZNF domain (human) (UniProt Q7Z3K3)
T1 sequence: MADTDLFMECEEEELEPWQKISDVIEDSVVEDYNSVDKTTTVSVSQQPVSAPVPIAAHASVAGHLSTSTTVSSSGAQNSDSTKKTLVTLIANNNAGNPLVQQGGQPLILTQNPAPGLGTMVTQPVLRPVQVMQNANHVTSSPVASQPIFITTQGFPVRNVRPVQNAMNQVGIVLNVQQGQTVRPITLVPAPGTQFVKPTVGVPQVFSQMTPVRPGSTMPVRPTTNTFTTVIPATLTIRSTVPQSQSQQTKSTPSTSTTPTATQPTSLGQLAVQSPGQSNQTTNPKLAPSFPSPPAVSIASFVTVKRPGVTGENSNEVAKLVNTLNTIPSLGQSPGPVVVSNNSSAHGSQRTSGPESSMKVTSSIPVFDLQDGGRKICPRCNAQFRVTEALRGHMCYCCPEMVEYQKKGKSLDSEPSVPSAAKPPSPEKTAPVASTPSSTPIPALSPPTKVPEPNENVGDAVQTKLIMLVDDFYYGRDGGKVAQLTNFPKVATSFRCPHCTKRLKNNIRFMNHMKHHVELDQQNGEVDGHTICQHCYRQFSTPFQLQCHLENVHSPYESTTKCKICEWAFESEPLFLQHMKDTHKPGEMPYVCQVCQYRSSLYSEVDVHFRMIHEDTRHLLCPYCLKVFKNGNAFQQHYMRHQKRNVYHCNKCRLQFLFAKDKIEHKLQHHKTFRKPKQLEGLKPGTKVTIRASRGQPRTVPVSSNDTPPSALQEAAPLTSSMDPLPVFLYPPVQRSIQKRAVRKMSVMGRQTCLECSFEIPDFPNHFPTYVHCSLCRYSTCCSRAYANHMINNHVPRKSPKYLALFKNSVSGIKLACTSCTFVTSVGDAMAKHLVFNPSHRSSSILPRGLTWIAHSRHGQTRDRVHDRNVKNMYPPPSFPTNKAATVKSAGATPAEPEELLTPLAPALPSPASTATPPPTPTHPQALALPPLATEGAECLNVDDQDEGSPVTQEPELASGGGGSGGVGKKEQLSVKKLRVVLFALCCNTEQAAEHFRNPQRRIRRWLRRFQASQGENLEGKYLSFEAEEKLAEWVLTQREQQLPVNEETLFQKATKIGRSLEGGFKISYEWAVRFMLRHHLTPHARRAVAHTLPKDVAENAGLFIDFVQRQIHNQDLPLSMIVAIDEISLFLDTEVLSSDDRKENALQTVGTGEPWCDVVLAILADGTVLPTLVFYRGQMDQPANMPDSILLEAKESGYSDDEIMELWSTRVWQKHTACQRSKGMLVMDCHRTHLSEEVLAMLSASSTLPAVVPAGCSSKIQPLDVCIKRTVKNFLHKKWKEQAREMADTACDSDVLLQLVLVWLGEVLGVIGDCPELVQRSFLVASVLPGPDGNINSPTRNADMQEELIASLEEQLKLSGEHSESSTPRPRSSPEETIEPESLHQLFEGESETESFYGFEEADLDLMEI

[2] = target: T2, QKI, KH domain-containing RNA binding (human) (UniProt Q96PU8)
T2 sequence: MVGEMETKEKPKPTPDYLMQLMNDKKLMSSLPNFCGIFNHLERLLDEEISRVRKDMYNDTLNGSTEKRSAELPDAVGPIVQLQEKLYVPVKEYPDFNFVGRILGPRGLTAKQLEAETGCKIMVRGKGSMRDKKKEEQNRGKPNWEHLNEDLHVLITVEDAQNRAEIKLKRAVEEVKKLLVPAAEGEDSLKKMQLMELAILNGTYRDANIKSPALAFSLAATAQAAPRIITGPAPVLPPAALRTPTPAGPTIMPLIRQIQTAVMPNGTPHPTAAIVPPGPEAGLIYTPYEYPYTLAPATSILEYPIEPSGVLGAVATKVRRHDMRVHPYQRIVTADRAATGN

[3] = target: T3, RNA binding motif protein 42 (human) (UniProt Q9BTD8)
T3 sequence: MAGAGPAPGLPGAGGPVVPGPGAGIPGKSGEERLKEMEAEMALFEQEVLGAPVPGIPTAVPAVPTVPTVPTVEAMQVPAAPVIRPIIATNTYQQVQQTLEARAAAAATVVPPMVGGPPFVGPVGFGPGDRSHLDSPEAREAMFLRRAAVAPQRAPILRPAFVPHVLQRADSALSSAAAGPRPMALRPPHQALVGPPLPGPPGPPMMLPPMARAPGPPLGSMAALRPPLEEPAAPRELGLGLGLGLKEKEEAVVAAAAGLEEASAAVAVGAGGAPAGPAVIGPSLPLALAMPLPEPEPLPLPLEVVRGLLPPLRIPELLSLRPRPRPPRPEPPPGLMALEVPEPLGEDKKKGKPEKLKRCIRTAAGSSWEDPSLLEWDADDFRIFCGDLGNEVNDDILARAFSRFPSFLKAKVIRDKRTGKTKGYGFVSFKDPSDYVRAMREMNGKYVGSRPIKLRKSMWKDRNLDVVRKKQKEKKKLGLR

binding (Vinculin (human)): binds
binding [1]: binds
binding [2]: binds
binding [3]: binds
Substance: human recombinant CPPED1 with N-terminal His-V5 dual tag (from UniProt Q9BRF8 1-314) (enzyme)
